From publication PMC3285607
No constants are given. Whether binding was seen depends on the method and setting. Where a sequence is shown, tags or fusion partners need not be part of it.

Protein sequences, listed by entry. Tags and fused reporters are not part of them. Lines headed by an entry give the natural chain unless they say otherwise; changes in a name come on top.
UniProt P09471: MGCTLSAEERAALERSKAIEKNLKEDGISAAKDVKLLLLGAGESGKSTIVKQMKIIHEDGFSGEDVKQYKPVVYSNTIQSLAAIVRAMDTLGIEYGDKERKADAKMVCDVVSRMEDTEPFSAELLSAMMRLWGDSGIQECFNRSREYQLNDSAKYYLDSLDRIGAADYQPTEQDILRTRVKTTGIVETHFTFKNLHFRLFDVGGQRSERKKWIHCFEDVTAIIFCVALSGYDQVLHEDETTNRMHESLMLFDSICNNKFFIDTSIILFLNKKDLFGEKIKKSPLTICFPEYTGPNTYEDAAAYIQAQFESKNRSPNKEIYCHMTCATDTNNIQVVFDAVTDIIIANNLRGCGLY

What was measured:
[1] = biological target: T1, GST fusion of the RGS12 RGS domain (aa 664–885) (UniProt O14924); test: SPR; Biacore 3000; GST-RGS12 RGS domain captured on anti-GST antibody on a CM5 chip; Gαo injected in the GDP·AlF4- state; equilibrium binding isotherm; both purified
T1 sequence: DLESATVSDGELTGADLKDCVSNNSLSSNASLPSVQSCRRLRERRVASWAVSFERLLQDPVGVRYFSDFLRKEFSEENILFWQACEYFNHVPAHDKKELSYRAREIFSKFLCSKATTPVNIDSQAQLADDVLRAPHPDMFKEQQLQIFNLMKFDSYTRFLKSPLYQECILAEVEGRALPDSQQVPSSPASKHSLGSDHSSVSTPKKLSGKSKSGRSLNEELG

[2] = biological target: T1, GST fusion of the RGS12 RGS domain (aa 664–885); test: SPR; Biacore 3000; GST-RGS12 RGS domain captured on anti-GST antibody on a CM5 chip; Gαo injected in the presence of GDP, GTP or GTPγS; both purified

For “GαoA(G42R), full-length, hexahistidine-tagged (from UniProt P09471 1-354)”, the binding [1] was “no binding (tested: 25 µM)” and the binding [2] was “no binding (tested: 25 µM)”.
